Measurements: PubChem BioAssay AID652054 (National Center for Advancing Translational Sciences (NCATS), 2013)
In all, about 360,000 compounds went through this assay and about 9,100 (2.5%) were called active. This list was built around the results that the source calls inconclusive (neither active nor inactive); the mix of calls is not that of the screen. No stated cut-off is given here; in the data, active means max response below about -50%; inconclusive means no clear call, values can overlap the other calls; inactive means above that.

Amino acid sequences for entries named in this document (tags omitted).
UniProt P35462, whole entry, looked up: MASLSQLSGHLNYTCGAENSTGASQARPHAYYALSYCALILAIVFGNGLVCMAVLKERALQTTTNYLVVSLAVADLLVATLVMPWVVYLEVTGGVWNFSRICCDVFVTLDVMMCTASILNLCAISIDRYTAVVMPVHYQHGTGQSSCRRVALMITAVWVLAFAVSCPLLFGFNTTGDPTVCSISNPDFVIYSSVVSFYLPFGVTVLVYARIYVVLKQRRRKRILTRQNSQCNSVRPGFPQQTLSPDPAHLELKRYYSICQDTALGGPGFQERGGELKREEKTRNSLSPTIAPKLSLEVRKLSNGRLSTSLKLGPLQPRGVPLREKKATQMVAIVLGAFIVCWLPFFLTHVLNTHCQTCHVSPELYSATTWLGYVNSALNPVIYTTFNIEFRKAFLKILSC

The compounds below were run against D(3) dopamine receptor (Homo sapiens) (UniProt P35462) (assay: qHTS of D3 Dopamine Receptor Antagonist: qHTS). Details: D3R cells, DiscoveRx beta-arrestin luminescence, antagonist mode; active compounds read low.
In short: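 Cells plated overnight at 1500 cells/well, then exposed to library compounds with dopamine controls for 90 minutes at 37 degrees C. DiscoveRx reagent added for 30–60 minutes at room temperature; luminescence read, quantitative HTS format.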
On the % scale 0 is the no-effect control and ±100 the full control effect.

| SMILES | max response, negative = inhibition |
| --- | --- |
| C/C=C(\C)C(=O)Nc1cccc(C2=NOC3(C2)C[C@H](C(N)=O)N(C(=O)CC#N)C3)c1 (stereo partly specified) | inactive: 54.7% |
| COc1ccc(-c2nnn(CC(=O)N(CCN3CCOCC3)C(C(=O)NC3CCCCC3)c3ccco3)n2)cc1 (stereo unspecified) | inconclusive: -35% |
| Oc1c(Br)cc(Cl)cc1C=Nc1ccccc1Br | active: -72.6% |
| Cc1ccccc1OCCCN1CCOCC1 | inactive: -8.72% |
| COC(=O)C1=C(C)N(Cc2ccccc2)C(=NCC(C)C)N[C@H]1c1cccc(C(F)(F)F)c1 | inactive: 5.17% |
| O=C(COc1ccc(S(=O)(=O)N2CCc3ccccc32)cc1Cl)NCc1ccccn1 | inconclusive: -36.6% |
| COc1ccc(C(CNC(=O)c2ccc(C)c(S(=O)(=O)N3CCOCC3)c2)N2CCCC2)cc1 (stereo unspecified) | active: -71.5% |
| Cc1ccc(C)c(S(=O)(=O)Nc2ccc(O)c3ccccc23)c1 | inconclusive: -35.6% |
| O=C1Nc2ccc([N+](=O)[O-])cc2OC1CCN1CCN(c2ccccc2)CC1 (stereo unspecified) | active: -50.8% |
| CC(C)c1nnc(NC(=O)Cc2cccs2)s1 | inconclusive: -45.5% |
| CN(C)S(=O)(=O)c1cccc(C(=O)OCC(=O)Nc2ccccc2OC(F)F)c1 | inconclusive: -46.4% |
| O=C(O)c1cc(-c2cccs2)[nH]n1 | inconclusive: -32.2% |
| CC(=O)Nc1ccc(OCC(O)CN2CCN(Cc3ccccc3)CC2)cc1 (stereo unspecified) | inconclusive: -46.6% |
| Cc1cccc(C)c1NC(=O)C(c1ccc(C#N)cc1)n1c(=O)c(-c2ccccc2)nc2ccccc21 (stereo unspecified) | active: -60.1% |
| CSc1cccc(NC(=S)N(CCCN2CCC(C)CC2)Cc2cccs2)c1 | active: -76% |
| COc1ccc(C(=O)Nc2oc(-c3ccccc3)c(-c3ccccc3)c2C#N)cc1 | active: -63.8% |
| O=C(CCN1CCCCC1)Nc1cccc(Cl)c1 | inconclusive: -33.7% |
| COc1ccc(N2CCN(CCCn3c(=S)[nH]c4ccccc4c3=O)CC2)cc1 | active: -75.2% |
| COc1cccc(NC(=O)C2(C)CCN2CCc2ccccc2)c1 (stereo unspecified) | inactive: -5.03% |

| SMILES | max response, negative = inhibition |
| --- | --- |
| CN(Cc1ccccc1)C(=O)c1oc(=O)c2ccccc2c1-c1ccccc1 | inactive: 14.5% |
| OCC1OC(c2ccccc2)OC2COC(c3ccccc3)OC12 (stereo unspecified) | inconclusive: -32.8% |
| Cc1ccc(C)c(NC(=S)NNC(=O)c2csc3c2CCCC3)c1 | inactive: -19% |
| COc1ccccc1C1C2=C(CCCC2=O)N(CC(=O)O)C2=C1C(=O)CCC2 | inconclusive: -39.7% |
| N#C/C(=C\c1cccc(O)c1)c1nc2ccccc2o1 | inconclusive: -30.9% |
| O=C(COc1cc(Cl)c(Cl)cc1Cl)NC(=O)Nc1ccc2c(c1)OCCO2 | inconclusive: -30.4% |
| Cc1ccc(S(=O)(=O)NCCCCCCNS(=O)(=O)c2ccc(C)cc2)cc1 | inconclusive: -34.8% |
| O=C(O)c1cc(-c2cc(C(=O)O)c3ccccc3n2)ccc1O | inconclusive: -33.2% |
| COc1cccc(-c2c(C#N)c(N)nc3c2c(C)nn3-c2ccccc2)c1O | inconclusive: -34.5% |
| Cc1ccc(S(=O)(=O)N(C)S(=O)(=O)c2ccc(C)cc2)cc1 | inconclusive: -33.9% |
| COc1ccc(C(=O)c2c(-c3ccc(OC)cc3)oc3ccccc23)cc1 | active: -63.3% |
| CC(=O)Nc1ccc(NC(=O)COC(=O)c2ccccc2C(=O)c2ccccc2)cc1 | inconclusive: -30.2% |
| CNCc1c(OCc2ccccc2)ccc2ccccc12 | inconclusive: -32.7% |
| O=c1c(-c2ccccc2)c(-c2ccccc2)oc2cc(O)cc(O)c12 | inactive: 2.06% |
| CCCCN(CC)C(=O)c1cccc(Cl)c1 | inconclusive: -41.4% |
| Oc1ccc(N=Nc2nccs2)c(O)c1 | active: -73.7% |
| O=[N+]([O-])c1ccc(O)c(Nc2c([N+](=O)[O-])ccc3nonc23)c1 | inconclusive: -49.5% |
| COCCCNC(=O)c1sc2ncn(CC(=O)Nc3ccc(C)c(Cl)c3)c(=O)c2c1C | inactive: -5.59% |
| S=c1[nH]nc(-c2ccncc2)n1/N=C/C=C/c1ccccc1 | inconclusive: -33.2% |

| SMILES | max response, negative = inhibition |
| --- | --- |
| Cc1sc(NC(=O)c2ccc(Br)s2)c(C(N)=O)c1C | inconclusive: -31.7% |
| COc1cc(OC)cc(C(=O)NNC(=S)Nc2ccc(S(N)(=O)=O)cc2)c1 | inconclusive: -46.2% |
| Cc1noc(C)c1S(=O)(=O)N1CCCC(C(=O)NCCc2ccc(Cl)cc2)C1 (stereo unspecified) | active: -71.7% |
| CN(C)c1ccc(-c2nnn(CC(=O)Nc3ccccc3N3CCOCC3)n2)cc1 | inactive: 37.3% |
| COc1ccc(Br)c(C(=O)N2CCN(S(=O)(=O)/C=C/c3ccccc3)CC2)c1 | inactive: -24.2% |
| Cc1cc(-c2n[nH]c(=S)n2/N=C/c2cccs2)n[nH]1 | inconclusive: -48.1% |
| COc1ccc(-c2cc(=O)oc3cc(OCC(=O)N(C)C4CCS(=O)(=O)C4)ccc23)cc1 (stereo unspecified) | active: -51.8% |
| COc1ccc(C(=O)ON=C2c3ccccc3-c3ccccc32)cc1OC | inconclusive: -30.2% |
| Cc1cc(NC(=O)CNCC(c2ccccc2)N(C)C)c([N+](=O)[O-])cc1C (stereo unspecified) | active: -53.8% |
| COc1ccc2sc(-c3ccccc3OC)c(-c3ccc(OC)nc3)c2c1 | inconclusive: -34.3% |
| Cc1ccc(C2C3=C(CC(C)(C)CC3=O)N=C3c4ccccc4C(=O)C32)cc1 (stereo unspecified) | inconclusive: -35.3% |
| COc1ccc(N2CCN(C(=O)CCCOc3cc(=O)n(C)c4ccccc34)CC2)cc1 | inconclusive: -36.4% |
| Cc1ccc2c(CN3CCC(C)CC3)cc(=O)oc2c1C | inconclusive: -39.8% |
| Cc1ccc(-c2nnc(N3CCOCC3)c3ccccc23)cc1S(=O)(=O)NCC1CCCO1 (stereo unspecified) | inconclusive: -37% |
| COc1ccc(-c2cc(C)no2)cc1S(=O)(=O)NCCCN1CCN(c2ccccc2)CC1 | active: -58% |
| C/C(=N\Nc1cc(C)nc(-c2ccccc2O)n1)c1ccccc1O | inactive: 26.6% |
| OC(CNC1CCCCCC1)COc1cccc2ccccc12 (stereo unspecified) | active: -75.5% |
| CC(C)C1C(=O)N(Cc2cn(CC3CCCCC3)nn2)CCS(=O)(=O)N1Cc1ccc(-c2cccc(CO)c2)cc1 (stereo unspecified) | inconclusive: -43.7% |

Some of the entries above, set out differently.
SMILES | max response, negative = inhibition
Cc1sc(NC(=O)c2ccc(Br)s2)c(C(N)=O)c1C | inconclusive: -31.7%
COc1cc(OC)cc(C(=O)NNC(=S)Nc2ccc(S(N)(=O)=O)cc2)c1 | inconclusive: -46.2%
Cc1noc(C)c1S(=O)(=O)N1CCCC(C(=O)NCCc2ccc(Cl)cc2)C1 (stereo unspecified) | active: -71.7%

Some of the entries so far, in CSV form.
SMILES,"max response, negative = inhibition"
OC(CNC1CCCCCC1)COc1cccc2ccccc12 (stereo unspecified),active: -75.5%
CC(C)C1C(=O)N(Cc2cn(CC3CCCCC3)nn2)CCS(=O)(=O)N1Cc1ccc(-c2cccc(CO)c2)cc1 (stereo unspecified),inconclusive: -43.7%
